Our source for the binding values is PMC4993430.

These are yes or no findings as the source states them, for the method shown. In cells and extracts the contact can be indirect. Binding calls can cover weak binding; strength is not graded here.

The target in this assay is T1, Xenopus Mcm10 (Xenopus laevis (endogenous in egg extract)) (UniProt Q5EAW4).
T1 sequence: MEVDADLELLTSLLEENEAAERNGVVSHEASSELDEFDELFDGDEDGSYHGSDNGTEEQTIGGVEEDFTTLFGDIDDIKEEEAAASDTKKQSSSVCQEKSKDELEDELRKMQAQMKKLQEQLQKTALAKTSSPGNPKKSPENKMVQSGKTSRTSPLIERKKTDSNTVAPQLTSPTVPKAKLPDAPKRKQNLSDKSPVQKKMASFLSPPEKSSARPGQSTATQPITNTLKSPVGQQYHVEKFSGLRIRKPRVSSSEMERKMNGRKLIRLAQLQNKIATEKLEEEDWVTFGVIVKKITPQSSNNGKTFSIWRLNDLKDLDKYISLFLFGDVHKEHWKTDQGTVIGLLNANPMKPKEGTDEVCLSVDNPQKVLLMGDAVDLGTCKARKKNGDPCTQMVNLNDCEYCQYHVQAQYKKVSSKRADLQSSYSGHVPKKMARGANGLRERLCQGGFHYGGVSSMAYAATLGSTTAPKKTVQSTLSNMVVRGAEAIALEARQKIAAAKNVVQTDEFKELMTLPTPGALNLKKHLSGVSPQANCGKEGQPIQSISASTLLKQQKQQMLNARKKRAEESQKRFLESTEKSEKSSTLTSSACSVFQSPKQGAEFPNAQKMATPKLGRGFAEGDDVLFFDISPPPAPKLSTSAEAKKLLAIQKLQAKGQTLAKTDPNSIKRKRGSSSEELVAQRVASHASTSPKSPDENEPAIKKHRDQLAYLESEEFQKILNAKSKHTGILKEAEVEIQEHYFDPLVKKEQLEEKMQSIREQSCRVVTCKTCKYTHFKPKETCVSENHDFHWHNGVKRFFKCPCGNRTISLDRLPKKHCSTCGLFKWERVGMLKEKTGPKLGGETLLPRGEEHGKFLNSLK
In words: co-IP; chromatin isolated in S-phase (45 min) from Xenopus egg extract, with or without 50 uM camptothecin; DNA digested with Benzonase, sample sonicated; supernatant immunoprecipitated with Mcm10 antibody on protein G-Dynabeads, 1 h at 4°C; immunoblot. On the technique in general: In western blotting, separated proteins are transferred to a membrane and probed.

ATM: the binding entry is given as “binds”. Next, Nbs1: “binds”; Rad17: “binds”.
